# Some of the results follow.
# Assays:
# Test in all cases: glycan array binding signal (z-score within array); higher = stronger binding
# Details in all cases: glycan notation: IUPAC condensed, linker removed
# [1] = biological target: Neu5Ac(a2-6)GlcNAc(b1-4)GlcNAc(b1-4)GlcNAc
# Procedure, shortened: (§1)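 Glycan array data came from 3228 arrays in the Consortium for Functional Glycomics database, and only arrays with an available protein sequence were kept. Glycan names were put into IUPAC-condensed notation, and columns mapping to the same glycan were averaged. The binding signal is a within-array Z-score, averaged across arrays of one protein sequence run at different concentrations or buffers and across linkers. A negative Z-score can be read as non-binding.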
# [2] = biological target: Neu5Ac(a2-8)Neu5Ac
# Procedure, shortened: as §1
# [3] = biological target: Neu5Ac(a2-8)Neu5Ac(a2-3)Gal(b1-3)GalNAc(b1-4)[Neu5Ac(a2-3)]Gal(b1-4)Glc
# Procedure, shortened: as §1
# [4] = biological target: Neu5Ac(a2-8)Neu5Ac(a2-3)Gal(b1-3)GalNAc(b1-4)[Neu5Ac(a2-8)Neu5Ac(a2-3)]Gal(b1-4)Glc
# Procedure, shortened: as §1
# [5] = biological target: Neu5Ac(a2-8)Neu5Ac(a2-3)Gal(b1-4)Glc
# Procedure, shortened: as §1
# [6] = biological target: Neu5Ac(a2-8)Neu5Ac(a2-3)Gal(b1-4)GlcNAc
# Procedure, shortened: as §1
# [7] = biological target: Neu5Ac(a2-8)Neu5Ac(a2-3)[Gal(b1-3)GalNAc(b1-4)]Gal(b1-4)Glc
# Procedure, shortened: as §1
# [8] = biological target: Neu5Ac(a2-8)Neu5Ac(a2-3)[GalNAc(b1-4)]Gal(b1-4)Glc
# Procedure, shortened: as §1
# [9] = biological target: Neu5Ac(a2-8)Neu5Ac(a2-8)Neu5Ac
# Procedure, shortened: as §1
# [10] = biological target: Neu5Ac(a2-8)Neu5Ac(a2-8)Neu5Ac(a2-3)Gal(b1-4)Glc
# Procedure, shortened: as §1
# [11] = biological target: Neu5Ac(a2-8)Neu5Ac(a2-8)Neu5Ac(a2-3)[Gal(b1-3)GalNAc(b1-4)]Gal(b1-4)Glc
# Procedure, shortened: as §1
# [12] = biological target: Neu5Ac(a2-8)Neu5Ac(a2-8)Neu5Ac(a2-3)[GalNAc(b1-4)]Gal(b1-4)Glc
# Procedure, shortened: as §1
# [13] = biological target: Neu5Ac(a2-8)Neu5Ac(a2-8)Neu5Ac(a2-8)Neu5Ac(a2-3)[GalNAc(b1-4)]Gal(b1-4)Glc
# Procedure, shortened: as §1
# [14] = biological target: Neu5Ac(a2-8)Neu5Gc(a2-3)Gal(b1-4)GlcNAc
# Procedure, shortened: as §1
# [15] = biological target: Neu5Ac(b2-6)Gal(b1-4)GlcNAc
# Procedure, shortened: as §1
# [16] = biological target: Neu5Ac(b2-6)GalNAc
# Procedure, shortened: as §1
# [17] = biological target: Neu5Ac9Ac(a2-3)Gal(b1-3)GlcNAc
# Procedure, shortened: as §1
# [18] = biological target: Neu5Ac9Ac(a2-3)Gal(b1-4)GlcNAc
# Procedure, shortened: as §1
# [19] = biological target: Neu5Ac9Ac(a2-6)Gal(b1-4)GlcNAc
# Procedure, shortened: as §1
# [20] = biological target: Neu5Gc(a2-3)Gal(b1-3)GlcNAc
# Procedure, shortened: as §1
# [21] = biological target: Neu5Gc(a2-3)Gal(b1-3)[Fuc(a1-4)]GlcNAc
# Procedure, shortened: as §1
# [22] = biological target: Neu5Gc(a2-3)Gal(b1-4)Glc
# Procedure, shortened: as §1
# [23] = biological target: Neu5Gc(a2-3)Gal(b1-4)GlcNAc
# Procedure, shortened: as §1
# [24] = biological target: Neu5Gc(a2-3)Gal(b1-4)GlcNAc(b1-3)Gal(b1-4)GlcNAc(b1-2)Man(a1-3)[Neu5Gc(a2-3)Gal(b1-4)GlcNAc(b1-3)Gal(b1-4)GlcNAc(b1-2)Man(a1-6)]Man(b1-4)GlcNAc(b1-4)GlcNAc
# Procedure, shortened: as §1
# [25] = biological target: Neu5Gc(a2-3)Gal(b1-4)[Fuc(a1-3)]GlcNAc
# Procedure, shortened: as §1
# [26] = biological target: Neu5Gc(a2-6)Gal(b1-4)GlcNAc
# Procedure, shortened: as §1
# [27] = biological target: Neu5Gc(a2-6)GalNAc
# Procedure, shortened: as §1
# [28] = biological target: Neu5Gc(a2-8)Neu5Ac(a2-3)Gal(b1-4)GlcNAc
# Procedure, shortened: as §1
# [29] = biological target: Neu5Gc(a2-8)Neu5Gc(a2-3)Gal(b1-4)GlcNAc
# Procedure, shortened: as §1
# [30] = biological target: Neu5Gc(a2-8)Neu5Gc(a2-3)Gal(b1-4)GlcNAc(b1-3)Gal(b1-4)GlcNAc
# Procedure, shortened: as §1
# [31] = biological target: Neu5Gc(a2-8)Neu5Gc(a2-6)Gal(b1-4)GlcNAc
# Procedure, shortened: as §1
# [32] = biological target: Neu5Gc(b2-6)Gal(b1-4)GlcNAc
# Procedure, shortened: as §1
binder,measurement,setting,value
"AntigenI/IIC123 (Streptococcus mutans), C9E3B4 (protein) MASMTGGQQMGRIHFHYFKLAVQPQVNKEIRNNNDINIDRTLVAKQSVVKFQLKTADLPAGRDETTSFVLVDPLPSGYQFNPEATKAASPGFDVTYDNATNTVTFKATAATLATFNADLTKSVATIYPTVVGQVLNDGATYKNNFTLTVNDAYGIKSNVVRVTTPGKPNDPDNPNNNYIKPTKVNKNENGVVIDGKTVLAGSTNYYELTWDLDQYKNDRSSADTIQKGFYYVDDYPEEALELRQDLVKITDANGNEVTGVSVDNYTNLEAAPQEIRDVLSKAGIRPKGAFQIFRADNPREFYDTYVKTGIDLKIVSPMVVKKQMGQTGGSYENQAYQIDFGNGYASNIIINNVPKINPKKDVTLTLDPADTNNVDGQTIPLNTVFNYRLIGGIIPADHSEELFEYNFYDDYDQTGDHYTGQYKVFAKVDITFKDGSIIKSGAELTQYTTAEVDTAKGAITIKFKEAFLRSVSIDSAFQAESYIQMKRIAVGTFENTYINTVNGVTYSSLEHHHHHH",glycan array binding signal (z-score),[1],-1.26
same,glycan array binding signal (z-score),[2],-0.548
same,glycan array binding signal (z-score),[3],0.038
same,glycan array binding signal (z-score),[4],-0.203
same,glycan array binding signal (z-score),[5],-0.225
same,glycan array binding signal (z-score),[6],-0.762
same,glycan array binding signal (z-score),[7],1.11
same,glycan array binding signal (z-score),[8],-0.496
same,glycan array binding signal (z-score),[9],-0.594
same,glycan array binding signal (z-score),[10],0.91
same,glycan array binding signal (z-score),[11],-0.19
same,glycan array binding signal (z-score),[12],-0.027
same,glycan array binding signal (z-score),[13],-0.374
same,glycan array binding signal (z-score),[14],-0.866
same,glycan array binding signal (z-score),[15],-1.02
same,glycan array binding signal (z-score),[16],-0.522
same,glycan array binding signal (z-score),[17],-1.23
same,glycan array binding signal (z-score),[18],0.275
same,glycan array binding signal (z-score),[19],-1.27
same,glycan array binding signal (z-score),[20],-0.943
same,glycan array binding signal (z-score),[21],0.131
same,glycan array binding signal (z-score),[22],-0.302
same,glycan array binding signal (z-score),[23],-1.14
same,glycan array binding signal (z-score),[24],-0.553
same,glycan array binding signal (z-score),[25],-0.615
same,glycan array binding signal (z-score),[26],-0.648
same,glycan array binding signal (z-score),[27],-0.987
same,glycan array binding signal (z-score),[28],-1.34
same,glycan array binding signal (z-score),[29],-0.838
same,glycan array binding signal (z-score),[30],-0.468
same,glycan array binding signal (z-score),[31],-0.326
same,glycan array binding signal (z-score),[32],-0.257

# Part of the list above, bar-delimited.
binder | measurement | setting | value
AntigenI/IIC123 (Streptococcus mutans), C9E3B4 (protein) MASMTGGQQMGRIHFHYFKLAVQPQVNKEIRNNNDINIDRTLVAKQSVVKFQLKTADLPAGRDETTSFVLVDPLPSGYQFNPEATKAASPGFDVTYDNATNTVTFKATAATLATFNADLTKSVATIYPTVVGQVLNDGATYKNNFTLTVNDAYGIKSNVVRVTTPGKPNDPDNPNNNYIKPTKVNKNENGVVIDGKTVLAGSTNYYELTWDLDQYKNDRSSADTIQKGFYYVDDYPEEALELRQDLVKITDANGNEVTGVSVDNYTNLEAAPQEIRDVLSKAGIRPKGAFQIFRADNPREFYDTYVKTGIDLKIVSPMVVKKQMGQTGGSYENQAYQIDFGNGYASNIIINNVPKINPKKDVTLTLDPADTNNVDGQTIPLNTVFNYRLIGGIIPADHSEELFEYNFYDDYDQTGDHYTGQYKVFAKVDITFKDGSIIKSGAELTQYTTAEVDTAKGAITIKFKEAFLRSVSIDSAFQAESYIQMKRIAVGTFENTYINTVNGVTYSSLEHHHHHH | glycan array binding signal (z-score) | [2] | -0.548
same | glycan array binding signal (z-score) | [26] | -0.648

# Reference: the supplement of paper PMC8728848
